As usually defined, the AC50 is the concentration at which the activity in the assay is half-maximal. A high value points to weaker potency.

The text below walks through data of PubChem BioAssay AID2685 (National Center for Advancing Translational Sciences (NCATS), 2010).

The nature of the assay: qHTS Assay for Lipid Storage Modulators in Drosophila S3 Cells.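 For cell number change: cells counted by Cell Tracker Red CMTPX staining in the red channel.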 Particulars: BODIPY lipid droplet fluorescence, 18-24 h; for cell number change: measured here: cell count max response, cells fed with added oleic acid. The essentials: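 Drosophila S3 cells loaded with oleic acid (400 uM, as added) and compounds at several concentrations; lipid droplets imaged by 488-nm laser-scanning cytometry, 500–530 nm intensity and object ratio to cell channel. Percent activity normalized to 20 uM Triacsin C.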

Setting [1] is: measured here: cell number channel AC50, cells fed with added oleic acid.
[2] abbreviates: measured here: lipid fluorescence (Fed channel) AC50, cells fed with added oleic acid.

Some of the results follow. The main result of the screen is listed elsewhere. These columns were measured beside it and carry no call. The list favours compounds with an active or inconclusive main result. The note in brackets gives the kind of curve behind each potency; many fits are weak.

As to `N#CC1(NC(=O)COC(=O)c2ccc(-c3ccc(O)cc3)cc2)CCCCC1`, the cell number change is -43.4%. Besides, the AC50 under setting [1] was 18.4 µM [falling, single point].
On to `CC1CCCN(C(=O)CSc2nc3ccccc3o2)C1` (stereo not given), for which the cell number change worked out at 28%. Also, the AC50 under setting [2] is 2.06 µM [falling, partial curve, poor fit].
As for `c1ccc(-c2ccnc3nc(-n4cccc4)nn23)cc1`, the cell number change was 3.87%.
For the compound `Cc1ccsc1C(=O)N(C)C1CCS(=O)(=O)C1` (stereo not given), the cell number change is -21.4%. The AC50 under setting [2] is 0.651 µM [rising, full curve].
As for `COc1ccc(/C=N/NC(=O)C(C)N(c2ccc(OC)cc2)S(C)(=O)=O)cc1` (stereo not given), the half-maximal activity concentration (AC50) under setting [1] was 0.116 µM [falling, full curve, poor fit].
For the compound `NS(=O)(=O)c1cccc(NC(=O)COC(=O)C2CCCCC2)c1`, the cell number change is -19.8%. In addition, the AC50 under setting [1] was 0.00517 µM [falling, full curve, poor fit].
As for `CCN(CC)C(=O)C12CC3CC(CC(Br)(C3)C1)C2`, the cell number change is 8.6%. Moreover, the AC50 under setting [1] is 7.31 µM [falling, partial curve, poor fit]. Besides, the AC50 under setting [2] is 6.51 µM [falling, single point].
For `O=C(Nc1cccc(C(F)(F)F)c1)C1CCN(S(=O)(=O)c2ccc(N3CCCC3=O)cc2)CC1`, the cell number change is -32.9%. The half-maximal activity concentration (AC50) under setting [1] is 1.84 µM [falling, full curve, poor fit]. Besides, the AC50 under setting [2] is 25.9 µM [falling, single point].
Take `COc1ccc2c(c1OC)c(=O)n1c3ccc(OC(C)C(=O)NCCCN4CCOCC4)cc3c3ccnc2c31` (stereo not given): the cell number change came to 6.63%. Also, the AC50 under setting [2] is 3.26 µM [falling, single point].
For `Cc1nc2c(-c3ccc(Cl)cc3)cnn2c2c1CCC2`, the cell number change was found to be 3.52%. Moreover, under setting [1], the AC50 is 0.13 µM [falling, full curve, poor fit].
In the case of `O=C(CCC1COc2ccccc2O1)NCc1ccco1` (stereo not given), the cell number change stood at 6.41%. Further, the AC50 under setting [2] is 3.26 µM [falling, single point].
With `Cc1ccc(NC(=O)CN2CCC(C(=O)c3ccc4c(c3)OCCO4)CC2)cc1`, the cell number change is 77%. Also, the AC50 under setting [1] was 29.1 µM [rising, single point]. In addition, the half-maximal activity concentration (AC50) under setting [2] is 6.51 µM [falling, single point].
For the compound `Cc1ccc(N(C(=O)CNC(=O)c2ccco2)C(C(=O)NC2CCCC2)c2cccnc2)cc1F` (stereo not given), the cell number change was 44.2%. Besides, the AC50 under setting [1] was 32.6 µM [rising, partial curve, poor fit].
Take `NC(=O)c1nsc(C(=O)N(c2cccc(F)c2)C(C(=O)NCC2CCCO2)c2ccc3ncccc3c2)c1N` (stereo not given): the cell number change is -1.39%. The AC50 under setting [2] is 6.51 µM [falling, single point].
Turning to `CC(C)CN(C(=O)CSc1ccc2c(c1)OCCO2)c1c(N)n(CC(C)C)c(=O)[nH]c1=O`, the cell number change turned out to be 9.23%. Moreover, the AC50 under setting [2] was 29.1 µM [rising, single point].
`COc1ccc(C(C)=O)cc1CSc1nc(C)cc(C)n1`: the cell number change came to 6.21%.
As for `O=C(NCc1cccnc1)C1c2ccccc2C(=O)N1C1CCCC1` (stereo not given), the cell number change was -36.2%. For the same compound, under setting [1], the AC50 is 4.61 µM [falling, partial curve, poor fit]. Also, the AC50 under setting [2] is 29.1 µM [falling, single point].
`Cc1ccc(NC(=O)CN(C)C(=O)c2cc(-c3ccccc3)nn2-c2ccccc2)cc1`: the cell number change turned out to be 157%. Further, the AC50 under setting [1] was 18.4 µM [rising, partial curve].
On to `CCOC(=O)Nc1nc(C)c(C(=O)c2ccc(Cl)cc2)s1`, for which the cell number change was -26.5%.
Take `Clc1ccccn1`: the cell number change came to 5.37%. Further, under setting [1], the AC50 was 0.651 µM [falling, single point]. Also, the AC50 under setting [2] was 0.651 µM [falling, single point].
As to `CCCCOc1ccc(N=Cc2cccs2)cc1`, the cell number change was 109%. In addition, under setting [1], the concentration at half-maximal activity (AC50) is 29.1 µM [rising, single point].
On to `Cc1ccc(C(=O)Nc2sc3c(c2C(=O)O)CCCCC3)o1`, for which the cell number change was -38.8%. In addition, under setting [1], the half-maximal activity concentration (AC50) was 32.6 µM [falling, partial curve, poor fit]. In addition, the half-maximal activity concentration (AC50) under setting [2] was 6.51 µM [falling, full curve].
In the case of `O=C(CC1CCCCC1)NCc1ccc(Cl)cc1`, the cell number change was -25.2%. The AC50 under setting [2] is 14.6 µM [falling, partial curve].
Turning to `O=C(NCc1ccccn1)C1CCC(=O)N(Cc2ccc(Cl)cc2)C1` (stereo not given), the cell number change was -12.4%.
Take `Cn1c(SCC(=O)Nc2ccc(Cl)cn2)nnc1C1CC1`: the cell number change stood at 1.14%. In addition, the AC50 under setting [1] was 0.58 µM [rising, single point].
As to `CC1=NN(C(C#N)c2ccccc2C)C(c2ccccc2)C1` (stereo not given), the cell number change was -6.42%.
Take `Cc1n[nH]c(=O)c2c(NC(=O)CSc3ccc(Br)cc3)oc(C)c12`: the AC50 runs as follows: under setting [1], 6.51 µM [falling, single point]; under setting [2], 6.51 µM [falling, single point].
Turning to `COc1ccc(COC(=O)C2=C(C)NC(=O)NC2c2cc(Br)c(O)c(OC)c2)cc1` (stereo not given), the cell number change was -17.1%.
With `O=C(CSc1nnc(CNC(=O)c2ccccc2F)o1)NC1CCCCC1`, the cell number change amounted to 29.7%. In addition, under setting [1], the concentration at half-maximal activity (AC50) was 0.259 µM [rising, full curve, poor fit].
On to `COc1cc2ccccc2cc1C(=O)N1CCN(C(C)=O)CC1`, for which the cell number change was -11%. Moreover, under setting [2], the half-maximal activity concentration (AC50) is 23.1 µM [falling, single point].
Turning to `CCCCCC(=O)Nc1ccc(-c2nnc3n2CCCCC3)cc1`, the cell number change turned out to be 44.3%. Also, the AC50 under setting [1] is 7.31 µM [rising, partial curve].
In the case of `c1ccc(OCc2nnc3n2CCCCC3)cc1`, the cell number change was 30.3%. For the same compound, the AC50 under setting [1] is 20.6 µM [rising, single point]. Also, the concentration at half-maximal activity (AC50) under setting [2] was 18.4 µM [rising, single point].
Turning to `Cc1ccccc1CS(=O)(=O)c1cnc2ccccc2n1`, the cell number change turned out to be 10.9%. In addition, the half-maximal activity concentration (AC50) under setting [2] is 1.64 µM [falling, partial curve, poor fit].
Consider `COC(=O)c1ccc(NC(=O)COC(=O)c2nc3nccc(C)n3n2)cc1`, for which the cell number change was -19.3%. Also, under setting [2], the half-maximal activity concentration (AC50) is 23.1 µM [falling, single point].
For `CCCCn1c(SCC(=O)NC(=O)NCc2ccco2)nc2cc(S(N)(=O)=O)ccc21`, the cell number change was found to be 40.4%. Moreover, the AC50 under setting [1] was 1.3 µM [rising, full curve, poor fit]. Besides, the concentration at half-maximal activity (AC50) under setting [2] was 29.1 µM [rising, single point].
Consider `COc1ccc2[nH]cc(/C=N/NS(=O)(=O)c3ccc(C)cc3)c2c1`, for which the cell number change is -35.5%. Also, the AC50 under setting [1] is 29.1 µM [falling, single point]. Under setting [2], the AC50 is 18.4 µM [falling, single point].
Regarding `CCCc1[nH]nc2c1C(c1ccc(OC)cc1OC)C(C#N)=C(N)O2` (stereo not given), the half-maximal activity concentration (AC50) under setting [2] was 0.651 µM [falling, full curve, poor fit].
